# Test results taken from the supplement of paper PMC8728848.
# Some of the results follow.
# How the values were obtained:
# Test in all cases: glycan array binding signal (z-score within array); higher = stronger binding
# Conditions in all cases: glycan notation: IUPAC condensed, linker removed
# [1] = molecular target: GlcNAc(b1-2)Gal(b1-3)GalNAc
# In short: (§1)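 Arrays were curated from the Consortium for Functional Glycomics database, 3228 in total, and kept only where the protein sequence was available. Binding is expressed as a within-array Z-score. This score was averaged across arrays of the same protein sequence at different concentrations or buffers and across linkers, and negative values can be read as non-binding.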
# [2] = molecular target: GlcNAc(b1-2)Man(a1-3)[GlcNAc(b1-2)Man(a1-6)]Man(b1-4)GlcNAc(b1-4)GlcNAc
# In short: as §1
# [3] = molecular target: GlcNAc(b1-2)Man(a1-3)[GlcNAc(b1-2)Man(a1-6)]Man(b1-4)GlcNAc(b1-4)[Fuc(a1-6)]GlcNAc
# In short: as §1
# [4] = molecular target: GlcNAc(b1-2)[GlcNAc(b1-4)]Man(a1-3)[GlcNAc(b1-2)Man(a1-6)]Man(b1-4)GlcNAc(b1-4)GlcNAc
# In short: as §1
# GlcNAc(b1-3)Gal = molecular target: GlcNAc(b1-3)Gal
# In short: as §1
# [5] = molecular target: GlcNAc(b1-3)Gal(b1-3)GalNAc
# In short: as §1
# GlcNAc(b1-3)Gal(b1-4)Glc = molecular target: GlcNAc(b1-3)Gal(b1-4)Glc
# In short: as §1
# [6] = molecular target: GlcNAc(b1-3)Gal(b1-4)GlcNAc
# In short: as §1
# [7] = molecular target: GlcNAc(b1-3)Gal(b1-4)GlcNAc(b1-3)Gal(b1-4)GlcNAc
# In short: as §1
# GlcNAc(b1-3)GalNAc = molecular target: GlcNAc(b1-3)GalNAc
# In short: as §1
# GlcNAc(b1-3)Man = molecular target: GlcNAc(b1-3)Man
# In short: as §1
# [8] = molecular target: GlcNAc(b1-3)[GlcNAc(b1-4)][GlcNAc(b1-6)]GlcNAc
# In short: as §1
# [9] = molecular target: GlcNAc(b1-3)[GlcNAc(b1-6)]Gal(b1-4)GlcNAc
# In short: as §1
# [10] = molecular target: GlcNAc(b1-3)[GlcNAc(b1-6)]GalNAc
# In short: as §1
# [11] = molecular target: GlcNAc(b1-4)Gal(b1-4)GlcNAc
# In short: as §1
# GlcNAc(b1-4)GlcNAc = molecular target: GlcNAc(b1-4)GlcNAc
# In short: as §1
# [12] = molecular target: GlcNAc(b1-4)GlcNAc(b1-4)GlcNAc
# In short: as §1
# [13] = molecular target: GlcNAc(b1-4)GlcNAc(b1-4)GlcNAc(b1-4)GlcNAc(b1-4)GlcNAc
# In short: as §1
# [14] = molecular target: GlcNAc(b1-4)GlcNAc(b1-4)GlcNAc(b1-4)GlcNAc(b1-4)GlcNAc(b1-4)GlcNAc
# In short: as §1
# [15] = molecular target: GlcNAc(b1-4)[GlcNAc(b1-6)]GalNAc
# In short: as §1
# [16] = molecular target: GlcNAc(b1-6)Gal(b1-4)GlcNAc
# In short: as §1
# GlcNAc(b1-6)GalNAc = molecular target: GlcNAc(b1-6)GalNAc
# In short: as §1
# GlcNAc3Prop(b1-4)GlcNAc = molecular target: GlcNAc3Prop(b1-4)GlcNAc
# In short: as §1
# [17] = molecular target: GlcNAc6S(b1-3)Gal(b1-4)GlcNAc
# In short: as §1
# Kdn(a2-3)Gal(b1-3)GalNAc = molecular target: Kdn(a2-3)Gal(b1-3)GalNAc
# In short: as §1
# Kdn(a2-3)Gal(b1-3)GlcNAc = molecular target: Kdn(a2-3)Gal(b1-3)GlcNAc
# In short: as §1
# Kdn(a2-3)Gal(b1-4)Glc = molecular target: Kdn(a2-3)Gal(b1-4)Glc
# In short: as §1
# Kdn(a2-3)Gal(b1-4)GlcNAc = molecular target: Kdn(a2-3)Gal(b1-4)GlcNAc
# In short: as §1
# [18] = molecular target: Kdn(a2-3)Gal(b1-4)[Fuc(a1-3)]GlcNAc
# In short: as §1
# Kdn(a2-6)Gal(b1-4)GlcNAc = molecular target: Kdn(a2-6)Gal(b1-4)GlcNAc
# In short: as §1
# [19] = molecular target: Man(a1-2)Man(a1-2)Man(a1-3)Man
# In short: as §1
# [20] = molecular target: Man(a1-2)Man(a1-2)Man(a1-6)[Man(a1-3)]Man
# In short: as §1
# Man(a1-2)Man(a1-3)Man = molecular target: Man(a1-2)Man(a1-3)Man
# In short: as §1
# [21] = molecular target: Man(a1-2)Man(a1-3)[Man(a1-2)Man(a1-6)]Man
# In short: as §1
# [22] = molecular target: Man(a1-2)Man(a1-3)[Man(a1-2)Man(a1-6)]Man(a1-6)[Man(a1-2)Man(a1-2)Man(a1-3)]Man
# In short: as §1
# [23] = molecular target: Man(a1-2)Man(a1-3)[Man(a1-2)Man(a1-6)]Man(a1-6)[Man(a1-2)Man(a1-2)Man(a1-3)]Man(b1-4)GlcNAc(b1-4)GlcNAc
# In short: as §1
# [24] = molecular target: Man(a1-2)Man(a1-3)[Man(a1-6)]Man(a1-6)[Man(a1-2)Man(a1-3)]Man(b1-4)GlcNAc(b1-4)GlcNAc
# In short: as §1
# [25] = molecular target: Man(a1-2)Man(a1-6)[Man(a1-3)]Man(a1-6)[Man(a1-2)Man(a1-2)Man(a1-3)]Man
# In short: as §1
binder,measurement,setting,value
"PEB3 (Campylobacter jejuni), Q0PBL7 (protein) MKKIITLFGACALAFSMANADVNLYGPGGPHTALKDIANKYSEKTGVKVNVNFGPQATWFEKAKKDADILFGASDQSALAIASDFGKDFNVSKIKPLYFREAIILTQKGNPLKIKGLKDLANKKVRIVVPEGAGKSNTSGTGVWEDMIGRTQDIKTIQNFRNNIVAFVPNSGSARKLFAQDQADAWITWIDWSKSNPDIGTAVAIEKDLVVYRTFNVIAKEGASKETQDFIAYLSSKEAKEIFKKYGWRE",glycan array binding signal (z-score),[1],-0.834
same,glycan array binding signal (z-score),[2],0.259
same,glycan array binding signal (z-score),[3],1.7
same,glycan array binding signal (z-score),[4],0.825
same,glycan array binding signal (z-score),GlcNAc(b1-3)Gal,-0.223
same,glycan array binding signal (z-score),[5],2.96
same,glycan array binding signal (z-score),GlcNAc(b1-3)Gal(b1-4)Glc,-1.09
same,glycan array binding signal (z-score),[6],-1.25
same,glycan array binding signal (z-score),[7],-1.89
same,glycan array binding signal (z-score),GlcNAc(b1-3)GalNAc,-0.715
same,glycan array binding signal (z-score),GlcNAc(b1-3)Man,-1.1
same,glycan array binding signal (z-score),[8],1.35
same,glycan array binding signal (z-score),[9],-0.395
same,glycan array binding signal (z-score),[10],-0.337
same,glycan array binding signal (z-score),[11],-1.18
same,glycan array binding signal (z-score),GlcNAc(b1-4)GlcNAc,0.361
same,glycan array binding signal (z-score),[12],0.412
same,glycan array binding signal (z-score),[13],-1.17
same,glycan array binding signal (z-score),[14],0.111
same,glycan array binding signal (z-score),[15],-0.607
same,glycan array binding signal (z-score),[16],-0.56
same,glycan array binding signal (z-score),GlcNAc(b1-6)GalNAc,-0.38
same,glycan array binding signal (z-score),GlcNAc3Prop(b1-4)GlcNAc,0.009
same,glycan array binding signal (z-score),[17],1.03
same,glycan array binding signal (z-score),Kdn(a2-3)Gal(b1-3)GalNAc,-0.454
same,glycan array binding signal (z-score),Kdn(a2-3)Gal(b1-3)GlcNAc,0.448
same,glycan array binding signal (z-score),Kdn(a2-3)Gal(b1-4)Glc,0.655
same,glycan array binding signal (z-score),Kdn(a2-3)Gal(b1-4)GlcNAc,0.159
same,glycan array binding signal (z-score),[18],-1.63
same,glycan array binding signal (z-score),Kdn(a2-6)Gal(b1-4)GlcNAc,-0.205
same,glycan array binding signal (z-score),[19],0.073
same,glycan array binding signal (z-score),[20],0.18
same,glycan array binding signal (z-score),Man(a1-2)Man(a1-3)Man,-0.169
same,glycan array binding signal (z-score),[21],-0.758
same,glycan array binding signal (z-score),[22],0.542
same,glycan array binding signal (z-score),[23],-1.19
same,glycan array binding signal (z-score),[24],-0.005
same,glycan array binding signal (z-score),[25],-0.36

# An excerpt of these results, tab-delimited.
binder	measurement	setting	value
PEB3 (Campylobacter jejuni), Q0PBL7 (protein) MKKIITLFGACALAFSMANADVNLYGPGGPHTALKDIANKYSEKTGVKVNVNFGPQATWFEKAKKDADILFGASDQSALAIASDFGKDFNVSKIKPLYFREAIILTQKGNPLKIKGLKDLANKKVRIVVPEGAGKSNTSGTGVWEDMIGRTQDIKTIQNFRNNIVAFVPNSGSARKLFAQDQADAWITWIDWSKSNPDIGTAVAIEKDLVVYRTFNVIAKEGASKETQDFIAYLSSKEAKEIFKKYGWRE	glycan array binding signal (z-score)	[13]	-1.17
same	glycan array binding signal (z-score)	[14]	0.111
same	glycan array binding signal (z-score)	[15]	-0.607
same	glycan array binding signal (z-score)	[16]	-0.56
same	glycan array binding signal (z-score)	GlcNAc(b1-6)GalNAc	-0.38
same	glycan array binding signal (z-score)	GlcNAc3Prop(b1-4)GlcNAc	0.009
same	glycan array binding signal (z-score)	[17]	1.03
same	glycan array binding signal (z-score)	Kdn(a2-3)Gal(b1-3)GalNAc	-0.454
